The supplement of paper PMC11006884
The entries are a selection whose mix differs from that of the whole data set.

Sequences of proteins named here, by UniProt entry; tags and fusion partners are left off. A change or cut given only in a name is not applied to a line headed by its entry.
UniProt O94927: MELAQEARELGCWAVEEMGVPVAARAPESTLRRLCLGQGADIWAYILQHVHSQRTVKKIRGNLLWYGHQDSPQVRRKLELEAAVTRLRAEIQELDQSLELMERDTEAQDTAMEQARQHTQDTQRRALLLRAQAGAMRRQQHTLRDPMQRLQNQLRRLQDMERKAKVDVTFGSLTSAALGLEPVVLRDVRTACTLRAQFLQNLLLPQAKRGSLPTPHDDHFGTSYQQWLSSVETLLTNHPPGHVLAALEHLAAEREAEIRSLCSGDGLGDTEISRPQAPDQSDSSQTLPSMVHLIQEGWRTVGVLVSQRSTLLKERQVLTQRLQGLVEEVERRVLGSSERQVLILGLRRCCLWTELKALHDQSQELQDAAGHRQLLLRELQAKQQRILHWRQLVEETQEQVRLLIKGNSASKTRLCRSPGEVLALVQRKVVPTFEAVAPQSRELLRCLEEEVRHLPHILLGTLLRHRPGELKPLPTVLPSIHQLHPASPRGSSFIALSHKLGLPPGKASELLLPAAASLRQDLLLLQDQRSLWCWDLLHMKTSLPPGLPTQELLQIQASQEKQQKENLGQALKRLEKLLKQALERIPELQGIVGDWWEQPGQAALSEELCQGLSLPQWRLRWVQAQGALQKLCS
UniProt O95639, whole entry, looked up: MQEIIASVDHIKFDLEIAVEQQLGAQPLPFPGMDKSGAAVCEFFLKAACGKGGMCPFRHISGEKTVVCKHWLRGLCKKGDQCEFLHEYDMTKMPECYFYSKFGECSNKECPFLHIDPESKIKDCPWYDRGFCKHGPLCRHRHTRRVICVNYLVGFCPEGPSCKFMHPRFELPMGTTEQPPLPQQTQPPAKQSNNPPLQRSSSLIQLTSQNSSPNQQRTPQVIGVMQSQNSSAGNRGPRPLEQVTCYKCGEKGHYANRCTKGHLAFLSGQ
UniProt O94885: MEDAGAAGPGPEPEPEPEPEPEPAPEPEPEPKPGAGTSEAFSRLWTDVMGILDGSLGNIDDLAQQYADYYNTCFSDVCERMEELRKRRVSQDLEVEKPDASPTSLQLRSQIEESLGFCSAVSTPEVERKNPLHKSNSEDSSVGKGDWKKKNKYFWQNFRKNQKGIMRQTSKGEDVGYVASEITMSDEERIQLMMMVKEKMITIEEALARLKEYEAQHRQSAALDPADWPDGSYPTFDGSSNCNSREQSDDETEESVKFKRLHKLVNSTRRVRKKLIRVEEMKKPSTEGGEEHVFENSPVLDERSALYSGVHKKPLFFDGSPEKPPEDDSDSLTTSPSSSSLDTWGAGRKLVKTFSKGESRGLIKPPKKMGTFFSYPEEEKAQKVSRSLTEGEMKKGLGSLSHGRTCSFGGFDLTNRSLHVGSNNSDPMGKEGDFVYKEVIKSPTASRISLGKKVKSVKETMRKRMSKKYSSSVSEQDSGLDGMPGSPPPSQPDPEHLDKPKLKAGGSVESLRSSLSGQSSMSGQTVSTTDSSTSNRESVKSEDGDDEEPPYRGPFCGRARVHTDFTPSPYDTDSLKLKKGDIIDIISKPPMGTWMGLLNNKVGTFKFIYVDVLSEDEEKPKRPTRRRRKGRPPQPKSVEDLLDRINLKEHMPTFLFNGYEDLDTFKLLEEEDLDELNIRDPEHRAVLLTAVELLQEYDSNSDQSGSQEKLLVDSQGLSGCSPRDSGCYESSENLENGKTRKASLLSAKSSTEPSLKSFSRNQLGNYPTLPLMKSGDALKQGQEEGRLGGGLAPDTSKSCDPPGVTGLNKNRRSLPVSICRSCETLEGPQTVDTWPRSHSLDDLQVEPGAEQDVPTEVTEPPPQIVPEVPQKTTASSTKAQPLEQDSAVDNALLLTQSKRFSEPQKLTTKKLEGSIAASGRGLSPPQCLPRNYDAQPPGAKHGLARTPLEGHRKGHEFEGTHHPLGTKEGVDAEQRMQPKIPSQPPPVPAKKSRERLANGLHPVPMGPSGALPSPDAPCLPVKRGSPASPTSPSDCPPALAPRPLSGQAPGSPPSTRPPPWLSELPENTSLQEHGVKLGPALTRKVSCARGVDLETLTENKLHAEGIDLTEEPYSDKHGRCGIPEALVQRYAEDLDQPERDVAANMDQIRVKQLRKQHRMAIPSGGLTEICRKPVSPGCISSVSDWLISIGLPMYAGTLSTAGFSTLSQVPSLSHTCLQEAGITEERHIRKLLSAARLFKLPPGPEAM
UniProt O95235: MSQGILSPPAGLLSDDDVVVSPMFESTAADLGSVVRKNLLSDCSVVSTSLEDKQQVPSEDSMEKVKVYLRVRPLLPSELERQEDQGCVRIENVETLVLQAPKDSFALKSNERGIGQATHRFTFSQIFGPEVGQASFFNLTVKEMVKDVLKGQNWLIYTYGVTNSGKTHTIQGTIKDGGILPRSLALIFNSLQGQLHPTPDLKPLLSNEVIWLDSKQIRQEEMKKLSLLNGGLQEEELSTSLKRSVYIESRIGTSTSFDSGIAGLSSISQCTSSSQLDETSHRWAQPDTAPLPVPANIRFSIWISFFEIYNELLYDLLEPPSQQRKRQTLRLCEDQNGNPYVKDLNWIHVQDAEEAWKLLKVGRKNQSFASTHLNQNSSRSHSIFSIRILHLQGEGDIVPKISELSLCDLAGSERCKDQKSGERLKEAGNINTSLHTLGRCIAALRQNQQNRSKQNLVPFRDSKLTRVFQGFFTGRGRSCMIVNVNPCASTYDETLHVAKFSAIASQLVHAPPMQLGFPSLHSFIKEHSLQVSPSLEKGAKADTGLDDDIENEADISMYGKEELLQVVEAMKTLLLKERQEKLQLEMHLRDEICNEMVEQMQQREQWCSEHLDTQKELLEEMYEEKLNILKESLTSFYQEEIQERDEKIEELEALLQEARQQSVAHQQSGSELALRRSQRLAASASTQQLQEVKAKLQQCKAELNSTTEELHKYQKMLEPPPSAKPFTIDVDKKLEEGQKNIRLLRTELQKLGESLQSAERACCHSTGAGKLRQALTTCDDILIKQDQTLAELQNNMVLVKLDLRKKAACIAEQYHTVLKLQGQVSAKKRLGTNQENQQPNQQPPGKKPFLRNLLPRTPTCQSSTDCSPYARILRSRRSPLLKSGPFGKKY
UniProt O94832: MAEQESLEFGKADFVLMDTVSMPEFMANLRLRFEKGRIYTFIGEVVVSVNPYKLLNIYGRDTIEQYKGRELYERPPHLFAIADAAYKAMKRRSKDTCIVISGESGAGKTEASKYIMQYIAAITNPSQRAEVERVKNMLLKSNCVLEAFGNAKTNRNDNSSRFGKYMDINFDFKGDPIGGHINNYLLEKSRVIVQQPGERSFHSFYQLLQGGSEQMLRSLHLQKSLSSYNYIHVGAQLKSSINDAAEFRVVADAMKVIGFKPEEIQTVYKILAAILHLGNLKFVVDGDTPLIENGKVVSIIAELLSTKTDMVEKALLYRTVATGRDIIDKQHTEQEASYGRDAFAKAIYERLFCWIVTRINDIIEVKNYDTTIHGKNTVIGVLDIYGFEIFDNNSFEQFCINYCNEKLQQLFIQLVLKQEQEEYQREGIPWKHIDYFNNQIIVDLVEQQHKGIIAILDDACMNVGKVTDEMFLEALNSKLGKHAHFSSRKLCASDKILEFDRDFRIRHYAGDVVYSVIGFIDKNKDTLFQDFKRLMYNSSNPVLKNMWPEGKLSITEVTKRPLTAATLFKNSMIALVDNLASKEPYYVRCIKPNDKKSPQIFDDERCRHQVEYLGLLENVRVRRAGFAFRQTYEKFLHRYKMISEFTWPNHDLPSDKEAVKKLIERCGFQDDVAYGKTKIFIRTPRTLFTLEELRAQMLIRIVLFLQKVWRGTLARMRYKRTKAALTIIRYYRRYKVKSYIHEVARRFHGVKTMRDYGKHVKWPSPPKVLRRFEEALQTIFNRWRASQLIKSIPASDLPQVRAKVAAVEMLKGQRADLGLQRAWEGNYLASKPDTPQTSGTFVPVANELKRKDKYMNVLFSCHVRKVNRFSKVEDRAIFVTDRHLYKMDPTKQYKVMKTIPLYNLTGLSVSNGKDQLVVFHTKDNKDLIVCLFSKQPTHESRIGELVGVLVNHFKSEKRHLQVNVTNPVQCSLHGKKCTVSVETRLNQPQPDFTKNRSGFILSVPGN
UniProt O96017, whole entry, looked up: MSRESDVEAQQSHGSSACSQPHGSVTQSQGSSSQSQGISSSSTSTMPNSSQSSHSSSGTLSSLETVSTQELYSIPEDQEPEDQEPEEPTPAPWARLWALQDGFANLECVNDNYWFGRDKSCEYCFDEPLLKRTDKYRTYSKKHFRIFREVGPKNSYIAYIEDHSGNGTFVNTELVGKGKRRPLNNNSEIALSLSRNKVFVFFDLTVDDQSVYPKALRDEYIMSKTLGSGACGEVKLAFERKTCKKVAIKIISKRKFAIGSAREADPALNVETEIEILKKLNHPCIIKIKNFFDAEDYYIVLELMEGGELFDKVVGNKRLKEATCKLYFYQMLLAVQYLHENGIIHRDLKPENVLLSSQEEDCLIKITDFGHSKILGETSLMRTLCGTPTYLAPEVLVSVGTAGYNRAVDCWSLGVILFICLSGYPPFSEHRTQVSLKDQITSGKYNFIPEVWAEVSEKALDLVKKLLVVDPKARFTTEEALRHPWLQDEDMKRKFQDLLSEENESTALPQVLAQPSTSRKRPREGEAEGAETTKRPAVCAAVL
UniProt O96008: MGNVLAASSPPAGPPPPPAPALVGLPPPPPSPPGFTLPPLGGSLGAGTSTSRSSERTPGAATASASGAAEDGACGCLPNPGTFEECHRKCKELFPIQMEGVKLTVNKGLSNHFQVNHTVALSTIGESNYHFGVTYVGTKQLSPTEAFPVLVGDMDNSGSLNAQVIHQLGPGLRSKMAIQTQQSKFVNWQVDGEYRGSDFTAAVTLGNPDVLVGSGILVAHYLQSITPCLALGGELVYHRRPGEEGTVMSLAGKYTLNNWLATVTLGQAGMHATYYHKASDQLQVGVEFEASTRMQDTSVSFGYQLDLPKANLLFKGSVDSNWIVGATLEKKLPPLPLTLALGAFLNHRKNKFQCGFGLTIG
UniProt O95218: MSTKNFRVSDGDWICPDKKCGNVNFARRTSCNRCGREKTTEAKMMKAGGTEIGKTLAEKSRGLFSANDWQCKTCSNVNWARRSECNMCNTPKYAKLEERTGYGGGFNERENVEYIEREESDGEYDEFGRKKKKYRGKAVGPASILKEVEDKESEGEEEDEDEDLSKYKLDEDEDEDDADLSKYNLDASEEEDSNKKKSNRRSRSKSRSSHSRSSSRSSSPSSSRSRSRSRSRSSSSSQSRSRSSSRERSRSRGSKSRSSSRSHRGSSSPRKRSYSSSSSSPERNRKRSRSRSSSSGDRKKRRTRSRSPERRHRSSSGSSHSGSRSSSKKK
UniProt P00568: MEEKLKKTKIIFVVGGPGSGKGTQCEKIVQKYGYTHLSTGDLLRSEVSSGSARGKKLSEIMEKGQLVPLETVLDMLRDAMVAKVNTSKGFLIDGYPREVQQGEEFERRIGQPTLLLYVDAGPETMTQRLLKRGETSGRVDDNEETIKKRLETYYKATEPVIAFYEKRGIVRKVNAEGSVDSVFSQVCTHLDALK
UniProt P04179: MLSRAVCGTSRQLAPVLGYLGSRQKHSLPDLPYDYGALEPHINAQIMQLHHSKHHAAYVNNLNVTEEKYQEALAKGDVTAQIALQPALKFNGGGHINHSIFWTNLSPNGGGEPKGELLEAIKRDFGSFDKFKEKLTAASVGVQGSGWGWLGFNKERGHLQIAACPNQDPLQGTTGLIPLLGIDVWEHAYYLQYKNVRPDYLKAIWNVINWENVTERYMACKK
UniProt O95817, whole entry, looked up: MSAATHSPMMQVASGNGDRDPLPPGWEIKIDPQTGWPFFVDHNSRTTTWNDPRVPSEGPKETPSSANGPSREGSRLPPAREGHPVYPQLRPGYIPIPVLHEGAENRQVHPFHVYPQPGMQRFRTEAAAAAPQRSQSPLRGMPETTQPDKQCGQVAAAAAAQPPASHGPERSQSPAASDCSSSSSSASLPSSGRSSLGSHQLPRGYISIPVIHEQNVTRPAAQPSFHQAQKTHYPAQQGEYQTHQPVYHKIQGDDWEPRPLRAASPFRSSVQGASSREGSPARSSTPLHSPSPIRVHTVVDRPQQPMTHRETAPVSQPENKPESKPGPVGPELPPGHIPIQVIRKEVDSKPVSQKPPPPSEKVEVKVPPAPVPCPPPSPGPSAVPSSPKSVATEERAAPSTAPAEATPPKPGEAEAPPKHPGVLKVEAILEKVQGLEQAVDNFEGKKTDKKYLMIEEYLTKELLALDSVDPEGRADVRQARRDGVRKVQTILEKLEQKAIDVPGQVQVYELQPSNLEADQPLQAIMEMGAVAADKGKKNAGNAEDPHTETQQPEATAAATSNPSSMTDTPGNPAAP
UniProt O95983: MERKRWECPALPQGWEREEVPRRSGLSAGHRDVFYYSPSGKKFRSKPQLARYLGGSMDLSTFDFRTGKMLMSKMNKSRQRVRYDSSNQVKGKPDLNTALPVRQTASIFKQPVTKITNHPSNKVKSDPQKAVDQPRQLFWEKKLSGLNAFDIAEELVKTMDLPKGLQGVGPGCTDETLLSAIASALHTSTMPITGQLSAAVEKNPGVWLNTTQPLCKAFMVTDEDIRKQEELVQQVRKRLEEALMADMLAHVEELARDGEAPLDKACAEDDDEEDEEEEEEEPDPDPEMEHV

Each target was assayed with COC(=O)C#Cc1ccccc1 [methyl 3-phenylpropiolate] (assay: log2 ratio of iodoacetamide-alkyne labeling of the cysteine site, DMSO over compound (competition); higher = stronger covalent engagement of the cysteine by the compound, active = 1 or more). Settings: 500 µM; treatment time 1 h; system: HEK293T cell lysate.
Method in brief: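 For each cysteine, the log2 competition ratio is mean control-channel reporter intensity over mean compound-channel reporter intensity. HEK293T lysate (2 mg/mL) was exposed to vehicle or electrophile (500 µM, 1 h, ambient temperature), labelled with iodoacetamide alkyne (1 h), clicked to sCIP-TMT reagents, digested overnight with trypsin at 37 °C, streptavidin-enriched and analysed by Orbitrap Eclipse LC-MS/MS with FAIMS and FragPipe. Cysteines quantified in only one of three replicates, each with duplicate channels, were excluded.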

log2 ratio of iodoacetamide-alkyne labeling, inactive:
UniProt O94927_C12 0.265
CPSF4 C110 (UniProt O95639) -0.138
SASH1 C799 (UniProt O94885) 0.202
KIF20A C43 (UniProt O95235) 0.125
EPRS C1480 (UniProt P07814) 0.449
MTA2 C495 (UniProt O94776) -0.0134
KIF4A C312 (UniProt O95239) 0.191
MYO1D C143 (UniProt O94832) 0.254
UniProt O96017_C539 0.494
SLC25A5 C257 (UniProt P05141) 0.201
SASH1 C822 (UniProt O94885) 0.662
EPRS C1377 (UniProt P07814) 0.157
TOMM40 C74 (UniProt O96008) 0.454
CA2 C205 (UniProt P00918) -0.11
ZRANB2 C74 (UniProt O95218) 0.267
AK1 C187 (UniProt P00568) 0.0768
ACSL3 C429 (UniProt O95573) 0.052
SOD2 C164 (UniProt P04179) -0.0962
BAG3 C151 (UniProt O95817) 0.655
MBD3 C266 (UniProt O95983) 0.0164

2 entries drawn at random from the list so far, as already listed:
log2 ratio of iodoacetamide-alkyne labeling, inactive:
TOMM40 C74 (UniProt O96008) 0.454
UniProt O94927_C12 0.265

Following part.

log2 ratio of iodoacetamide-alkyne labeling, active:
RTN3 C34 (UniProt O95197) 1.43
HEXIM1 C84 (UniProt O94992) 1.3
